These are yes or no findings as the source states them, for the method shown. In cells and extracts the contact can be indirect. Binding can be weak; no strength is given.
Target: EhADH (E. histolytica (endogenous in trophozoites)) (UniProt Q9U7F6)
Test: co-IP; rabbit αEhADH antibodies (or preimmune serum) on protein G-agarose; trophozoite lysates (1 mg) in resting conditions and at different times of erythrophagocytosis; overnight at 4 °C; washes with PBS; western blot

Protein sequences, listed by entry. Tags and fused reporters are not part of them. Lines headed by an entry give the natural chain unless they say otherwise; changes in a name come on top.
UniProt Q9U7F6: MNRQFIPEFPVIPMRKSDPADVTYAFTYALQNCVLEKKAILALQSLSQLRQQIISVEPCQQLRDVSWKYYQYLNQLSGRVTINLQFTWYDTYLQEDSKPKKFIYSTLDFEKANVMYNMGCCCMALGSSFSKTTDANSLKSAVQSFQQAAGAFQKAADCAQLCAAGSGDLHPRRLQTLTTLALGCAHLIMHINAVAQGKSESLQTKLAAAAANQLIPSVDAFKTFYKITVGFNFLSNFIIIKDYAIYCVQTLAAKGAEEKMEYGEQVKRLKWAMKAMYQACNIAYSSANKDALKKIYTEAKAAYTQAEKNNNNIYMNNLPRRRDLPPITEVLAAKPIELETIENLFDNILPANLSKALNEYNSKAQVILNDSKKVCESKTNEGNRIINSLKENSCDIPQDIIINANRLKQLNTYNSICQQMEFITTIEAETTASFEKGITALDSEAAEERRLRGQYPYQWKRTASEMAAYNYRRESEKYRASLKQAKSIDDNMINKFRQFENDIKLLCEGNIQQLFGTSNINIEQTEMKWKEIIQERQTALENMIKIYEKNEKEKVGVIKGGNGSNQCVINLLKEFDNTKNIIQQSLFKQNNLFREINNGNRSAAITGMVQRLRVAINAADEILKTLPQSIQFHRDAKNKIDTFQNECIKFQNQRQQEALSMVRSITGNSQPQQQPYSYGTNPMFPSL
UniProt C4M1A5: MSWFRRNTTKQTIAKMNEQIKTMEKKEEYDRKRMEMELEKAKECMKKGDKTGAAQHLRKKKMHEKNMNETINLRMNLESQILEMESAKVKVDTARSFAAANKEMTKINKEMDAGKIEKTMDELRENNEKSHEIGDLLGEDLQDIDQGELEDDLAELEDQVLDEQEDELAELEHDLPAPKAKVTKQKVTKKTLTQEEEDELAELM

## EhVps32 protein (from UniProt C4M1A5)
  binding: binds

Reference: article PMC4521941
